## Screening data, single-dose tests

Amino acid sequences for entries named in this document (tags omitted).
UniProt P9WPC5, whole entry: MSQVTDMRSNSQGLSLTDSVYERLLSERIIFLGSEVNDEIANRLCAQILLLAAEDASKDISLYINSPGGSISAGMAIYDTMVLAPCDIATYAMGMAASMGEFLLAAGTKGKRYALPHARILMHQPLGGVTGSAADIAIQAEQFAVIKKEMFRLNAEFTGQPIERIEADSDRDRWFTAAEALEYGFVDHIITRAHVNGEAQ
UniProt P9WPC3, whole entry partner: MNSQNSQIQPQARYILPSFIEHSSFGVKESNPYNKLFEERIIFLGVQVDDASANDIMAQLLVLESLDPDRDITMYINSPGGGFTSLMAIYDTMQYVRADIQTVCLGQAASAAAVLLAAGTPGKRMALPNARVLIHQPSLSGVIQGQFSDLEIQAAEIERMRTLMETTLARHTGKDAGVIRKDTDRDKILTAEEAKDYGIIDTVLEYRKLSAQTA
UniProt P9WNZ1, whole entry: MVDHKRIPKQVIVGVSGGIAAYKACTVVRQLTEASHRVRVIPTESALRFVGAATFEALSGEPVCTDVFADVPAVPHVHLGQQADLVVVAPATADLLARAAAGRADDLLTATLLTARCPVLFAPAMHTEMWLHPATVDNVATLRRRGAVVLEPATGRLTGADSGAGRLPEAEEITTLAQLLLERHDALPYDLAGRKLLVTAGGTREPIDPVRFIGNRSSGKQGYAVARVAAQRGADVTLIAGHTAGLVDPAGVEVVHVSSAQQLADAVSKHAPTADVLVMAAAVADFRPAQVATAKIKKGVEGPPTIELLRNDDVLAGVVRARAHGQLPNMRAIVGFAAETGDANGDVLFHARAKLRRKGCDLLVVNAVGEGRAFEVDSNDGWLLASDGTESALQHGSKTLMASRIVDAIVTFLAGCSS

ClpP1P2: 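ClpP1P2, Mycobacterium tuberculosis (UniProt P9WPC5 and UniProt P9WPC3). Protease assay of ClpP1P2, read by the AMC dye that it sets free. Tested at 50 µM. Direction is inferred from only a few compounds that gave an IC50; most scored high, so higher reads as stronger inhibition. Most other retested compounds had strongly negative values. Of about 69,000 compounds tested this way, about 10 (0.015%) reached 50% or more in at least one test.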
CoaBC: 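Coenzyme A biosynthesis protein CoaBC, Mycobacterium tuberculosis (UniProt P9WNZ1). Enzyme assay of CoaBC with a phosphate dye (Biomol Green) read at 650 nm. Tested at 30 µM. Direction is inferred from only a few compounds that gave an IC50; most scored high, so higher reads as stronger inhibition. Most strong results did not repeat in a second test. About 67,000 compounds were tested under these conditions; 0.06% (about 40) showed 50% or more at least once.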

The filed quantity is “Percent Effect” (%). The record does not define 0% and 100%; most values in the screen are far below 50% and negative numbers occur (in some assays of this library far below -100). This is an unselected part of the compounds tested. A dash means the value is not listed here; it may have been measured.

compound	ClpP1P2	CoaBC
Cc1ccnc(NC(=O)C2(n3cnnn3)CCCCC2)c1	-2.399%	1.772%
CN1CC2(CCNCC2)COc2ccccc2S1(=O)=O	18.18%	4.261%
O=C(NCc1ncc(-c2ccccc2)o1)NC1CCC(O)CC1 (stereo not drawn)	-4.142%	-1.515%
O=C(C1CCN(c2ncnc3cccc(F)c23)CC1)N1CCCC1	3.438%	3.509%
CCn1ccnc1CNCC1CCN(CC(O)c2ccccc2)CC1 (stereo not drawn)	4.416%	-0.5181%
CCN(C)C[C@@H]1CN(S(=O)(=O)c2cccc(Cl)c2)C[C@@H]1CO	-4.713%	8.678%
CCOc1ncccc1CNC(=O)c1csc(Br)c1	-0.7311%	1.242%
Cc1csc(CN(C)C2CCN(c3sccc3C#N)C2=O)n1 (stereo not drawn)	-4.283%	-3.913%
O=C(Cc1ccccn1)N1C[C@@H](Oc2cccnc2)[C@H]2OCCC[C@H]21	13.88%	4.941%
O=C(C[C@@H]1COC[C@H]2CN(Cc3ccsc3)C[C@@H]12)N1CCCC1	-11.23%	6.361%
Cc1nc(-c2ccco2)ccc1C(=O)NCCC(=O)N1CCCCC1	-5.266%	1.152%
O[C@@H]1C[C@H]2CN(CC3CCCCC3)[C@H](Cc3ccccc3)CN2C1	-21.32%	8.447%
CCc1noc(CNc2ccc(F)cc2OCC2CC2)n1	-13.67%	7.889%
CC(=O)N1CCCC1c1cccc(Cc2ccccc2Cl)n1 (stereo not drawn)	-8.383%	2.906%
CC(C)NC(=O)C(NC(=O)N1CCN(c2ccc(Cl)cc2)CC1)C(C)C (stereo not drawn)	-12.23%	0.7663%
CCN1CCC(NC(=O)Cn2cc(C)c3ccccc32)CC1	0.4193%	-2.17%
CCCN1CCC(CNC(=O)N2CCCC2c2c(C)n[nH]c2C)CC1 (stereo not drawn)	-9.952%	2.658%
Cc1ccc(-c2nnc(C(C)N3CCc4cncnc4C3)o2)cc1 (stereo not drawn)	7.56%	-0.8929%
FC(F)(F)c1ccc2nc([C@H]3CCN(C4CCCCC4)C3)[nH]c2c1	1.104%	-15.12%
CCC1=N[C@@]2(CC[C@@H]3CN(Cc4ccccc4F)C[C@@H]32)C(=O)N1CC	11.47%	-1.449%
CC(C)c1noc(-c2ccc(NCc3noc(C(C)C)n3)nc2)n1	-4.886%	-2.561%
CCN1CC2(CC1=O)CN(C(C)=O)CCN(C(=O)c1ccco1)C2 (stereo not drawn)	-8.153%	5.806%
COCCNC(=O)CN(C)C(C)c1nc(C)no1 (stereo not drawn)	-11.51%	5.785%
O=C(NCCNC(=O)c1ccc(Br)cc1)c1ccc(O)cc1	2.055%	-
CCOc1nnc(CN2CCN(CCOC)CC2)s1	17.64%	4.132%
CC(C)(C)S(=O)(=O)c1ccc(N2CCC(n3ccnc3)CC2)cn1	-2.534%	4.436%
CC(C)c1nn(C)c(N2CCOCC2)c1CNC(C)c1cccs1 (stereo not drawn)	5.837%	8.514%
Cc1cccc(N(CC(=O)c2ccccc2)C2=NCCCCC2)c1	-18.78%	2.025%
CCN(Cc1nc2c(cnn2C)c(=O)[nH]1)c1cc(C)cc(C)c1	7.659%	1.908%
Cc1ccc(C2COCCN2C(=O)c2ccc(C#N)cc2)o1 (stereo not drawn)	-0.7611%	-1.24%
Cc1ccccc1C(=O)N1CC[C@H](O)[C@@H](N2CCOCC2)CC1	-4.417%	-17.26%
O=C(Nc1cccn(CC(F)(F)F)c1=O)c1ccc(F)cc1	-2.717%	-
Cc1cnn(CC2CCCCN2C(=O)c2n[nH]c3ccccc23)c1 (stereo not drawn)	-16.01%	-0.6818%
CC(=O)NCC1CCN(C(=O)NCCc2ccc(Cl)s2)CC1	6.84%	2.672%
COCC1COCCC12CCN(C(=O)Cc1cccc(OC)c1)CC2 (stereo not drawn)	-15.39%	3.759%
CN1CCN(C(=O)Cc2ccccn2)Cc2cccnc21	-11.77%	0.1631%
CN(Cc1cnn(C)c1)C(=O)NC1CCN(c2ncccn2)CC1	3.666%	-0.4819%
CCCC(=O)N1CCOC2(COCCN(CC(=O)NC)C2)C1 (stereo not drawn)	-0.4162%	9.273%
O=C1N(Cc2ccc(F)c(F)c2)CCCC1(O)CNCC1CCCCC1 (stereo not drawn)	-12.46%	1.269%
CC(CNC(=O)c1cnc[nH]1)Oc1ccccc1Br (stereo not drawn)	-5.463%	8.657%
CCOC(=O)c1sc(NC(=O)c2cc(=O)c(OC)c[nH]2)nc1C	-5.961%	-2.02%
CNC(=O)CN1CCO[C@H]2CN(C(=O)C3CC3)C[C@H]21	-3.086%	5.123%
O=C(CN1C(=O)c2ccccc2C1=O)N1CCOC2(CCOCC2)C1	-20.55%	1.38%
c1nc2c(c(NC3CCC3)n1)CCNCC2	-2.864%	-
O=C(NCC1CCCO1)C1CCN(Cc2nc(C3CC3)no2)CC1 (stereo not drawn)	5.907%	0.7212%
c1ccc(CCN2C[C@@H]3OCCN(c4ncccn4)[C@@H]3C2)cc1	1.693%	1.777%
O=C(CN1CCCc2sccc2C1=O)NC1CCc2nccn2C1 (stereo not drawn)	12.88%	-8.884%
O=C1NCCCc2[nH]c(Cc3ccc(F)cc3)nc21	4.583%	0.8403%
CN(CCOc1ccccc1F)C1CCOC1=O (stereo not drawn)	-4.636%	2.982%
CC(=O)Nc1ccc(CNC2CC(=O)N(Cc3cccc(F)c3)C2)cc1 (stereo not drawn)	-3.935%	-0.6397%
CN(C(=O)c1ccncc1)c1nnc(C2CCOC2)s1 (stereo not drawn)	-11.26%	-10.41%
CC(C)COC(=O)N1CCCN(C(C)c2nc(C(C)C)no2)CC1 (stereo not drawn)	-7.799%	10.71%
Cc1cnc(CN2CCOC(Cn3nc(C)cc3C)C2)cn1 (stereo not drawn)	-6.813%	5.371%
CC(C)[C@H]1CN(CC2CCC2)C[C@@H]1NC(=O)c1ccc(=O)[nH]c1	-4.325%	0.1218%
O=C(c1ccnnc1)N1C[C@@H]2CN(c3ncccn3)C[C@@H]2C1	-2.032%	-3.074%
O=C(c1ccncc1)N1CCCC(C2=Nc3ccccc3S(=O)(=O)N2)C1 (stereo not drawn)	-11.99%	-1.695%
c1ccc2nc(N3CCOC(Cn4cncn4)C3)cnc2c1 (stereo not drawn)	-166.8%	4.724%
CCN(CCOC)C(=O)CCc1scnc1C	2.376%	-6.723%
Cc1cnn(CCNCc2csc(-c3ccc4c(c3)OCO4)n2)c1	10.81%	1.064%
O=C(C1=CCCC1)N1C[C@@H]2COC[C@]2(COc2ncccc2F)C1	-7.364%	3.457%
CC(C)N(C(=O)Cn1cc(Cl)cn1)c1ccccc1	3.717%	-0.3822%
O=C(c1cccnc1)N1CCCC1C1CCN(Cc2ccccc2)CC1 (stereo not drawn)	-11.92%	1.463%

Some entries from above, unchanged:

| compound | ClpP1P2 | CoaBC |
|---|---|---|
| `CN1CCN(C(=O)Cc2ccccn2)Cc2cccnc21` | -11.77% | 0.1631% |
| `COCCNC(=O)CN(C)C(C)c1nc(C)no1` (stereo not drawn) | -11.51% | 5.785% |
| `Cc1cnn(CC2CCCCN2C(=O)c2n[nH]c3ccccc23)c1` (stereo not drawn) | -16.01% | -0.6818% |

Data taken from ChEMBL document CHEMBL3988442, “University of Dundee, Small-Polar-MMV Screening Library” (2021).